These results are taken from the supplement of paper PMC6411743.

The chains behind the UniProt entries cited, without tags or fusion partners. Where a name states a change or a piece, a line headed by the entry shows the natural chain unless it says otherwise.
UniProt Q9BZK7: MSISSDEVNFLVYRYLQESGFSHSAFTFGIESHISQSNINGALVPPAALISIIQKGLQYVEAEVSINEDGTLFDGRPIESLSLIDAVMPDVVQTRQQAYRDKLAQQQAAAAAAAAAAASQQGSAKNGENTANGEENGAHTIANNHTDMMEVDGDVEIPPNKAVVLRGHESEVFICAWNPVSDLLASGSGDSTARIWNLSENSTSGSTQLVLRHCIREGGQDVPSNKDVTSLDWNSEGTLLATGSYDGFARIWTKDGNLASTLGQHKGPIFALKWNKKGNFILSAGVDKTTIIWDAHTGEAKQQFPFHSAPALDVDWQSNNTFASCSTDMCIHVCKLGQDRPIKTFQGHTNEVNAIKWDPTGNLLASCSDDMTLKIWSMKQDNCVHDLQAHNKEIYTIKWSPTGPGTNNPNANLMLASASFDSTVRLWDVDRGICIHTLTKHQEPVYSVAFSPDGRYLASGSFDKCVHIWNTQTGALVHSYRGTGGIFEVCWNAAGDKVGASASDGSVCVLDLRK
UniProt Q6PFW1: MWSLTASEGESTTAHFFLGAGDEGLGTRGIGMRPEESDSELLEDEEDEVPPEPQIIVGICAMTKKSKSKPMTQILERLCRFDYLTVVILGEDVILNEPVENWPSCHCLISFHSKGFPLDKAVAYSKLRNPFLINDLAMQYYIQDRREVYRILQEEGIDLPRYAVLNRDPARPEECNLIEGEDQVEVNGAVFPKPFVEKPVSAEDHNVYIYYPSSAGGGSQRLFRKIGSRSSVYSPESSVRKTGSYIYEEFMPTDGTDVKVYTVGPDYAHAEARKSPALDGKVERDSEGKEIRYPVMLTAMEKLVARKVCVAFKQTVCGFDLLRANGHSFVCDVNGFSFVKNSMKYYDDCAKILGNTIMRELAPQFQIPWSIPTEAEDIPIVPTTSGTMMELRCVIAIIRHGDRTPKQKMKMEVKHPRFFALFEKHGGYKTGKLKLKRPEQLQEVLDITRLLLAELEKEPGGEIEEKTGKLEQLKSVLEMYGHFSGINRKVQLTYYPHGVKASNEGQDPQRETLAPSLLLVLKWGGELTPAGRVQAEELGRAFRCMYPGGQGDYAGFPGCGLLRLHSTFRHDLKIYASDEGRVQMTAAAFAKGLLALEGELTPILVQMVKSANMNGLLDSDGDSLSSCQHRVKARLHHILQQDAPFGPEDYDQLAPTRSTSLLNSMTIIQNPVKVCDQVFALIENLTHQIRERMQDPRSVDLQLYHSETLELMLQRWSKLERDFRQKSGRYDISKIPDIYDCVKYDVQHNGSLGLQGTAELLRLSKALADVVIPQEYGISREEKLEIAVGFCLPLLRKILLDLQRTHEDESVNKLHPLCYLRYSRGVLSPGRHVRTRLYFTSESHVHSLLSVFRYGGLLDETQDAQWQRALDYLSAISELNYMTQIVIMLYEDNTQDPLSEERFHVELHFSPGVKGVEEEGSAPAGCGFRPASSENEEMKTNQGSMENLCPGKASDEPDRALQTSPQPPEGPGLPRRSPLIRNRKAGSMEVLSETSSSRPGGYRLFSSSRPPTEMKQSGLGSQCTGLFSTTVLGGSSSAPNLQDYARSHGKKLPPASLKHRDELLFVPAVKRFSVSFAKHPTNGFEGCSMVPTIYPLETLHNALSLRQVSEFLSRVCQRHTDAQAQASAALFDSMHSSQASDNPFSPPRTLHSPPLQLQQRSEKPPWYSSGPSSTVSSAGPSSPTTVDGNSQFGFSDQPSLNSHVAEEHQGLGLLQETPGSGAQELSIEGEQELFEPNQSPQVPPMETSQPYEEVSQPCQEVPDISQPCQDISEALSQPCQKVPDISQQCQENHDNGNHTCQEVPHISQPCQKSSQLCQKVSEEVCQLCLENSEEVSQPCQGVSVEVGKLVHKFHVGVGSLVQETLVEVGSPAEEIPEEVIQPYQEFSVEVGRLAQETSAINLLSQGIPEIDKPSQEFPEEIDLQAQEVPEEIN
UniProt Q8N4C6: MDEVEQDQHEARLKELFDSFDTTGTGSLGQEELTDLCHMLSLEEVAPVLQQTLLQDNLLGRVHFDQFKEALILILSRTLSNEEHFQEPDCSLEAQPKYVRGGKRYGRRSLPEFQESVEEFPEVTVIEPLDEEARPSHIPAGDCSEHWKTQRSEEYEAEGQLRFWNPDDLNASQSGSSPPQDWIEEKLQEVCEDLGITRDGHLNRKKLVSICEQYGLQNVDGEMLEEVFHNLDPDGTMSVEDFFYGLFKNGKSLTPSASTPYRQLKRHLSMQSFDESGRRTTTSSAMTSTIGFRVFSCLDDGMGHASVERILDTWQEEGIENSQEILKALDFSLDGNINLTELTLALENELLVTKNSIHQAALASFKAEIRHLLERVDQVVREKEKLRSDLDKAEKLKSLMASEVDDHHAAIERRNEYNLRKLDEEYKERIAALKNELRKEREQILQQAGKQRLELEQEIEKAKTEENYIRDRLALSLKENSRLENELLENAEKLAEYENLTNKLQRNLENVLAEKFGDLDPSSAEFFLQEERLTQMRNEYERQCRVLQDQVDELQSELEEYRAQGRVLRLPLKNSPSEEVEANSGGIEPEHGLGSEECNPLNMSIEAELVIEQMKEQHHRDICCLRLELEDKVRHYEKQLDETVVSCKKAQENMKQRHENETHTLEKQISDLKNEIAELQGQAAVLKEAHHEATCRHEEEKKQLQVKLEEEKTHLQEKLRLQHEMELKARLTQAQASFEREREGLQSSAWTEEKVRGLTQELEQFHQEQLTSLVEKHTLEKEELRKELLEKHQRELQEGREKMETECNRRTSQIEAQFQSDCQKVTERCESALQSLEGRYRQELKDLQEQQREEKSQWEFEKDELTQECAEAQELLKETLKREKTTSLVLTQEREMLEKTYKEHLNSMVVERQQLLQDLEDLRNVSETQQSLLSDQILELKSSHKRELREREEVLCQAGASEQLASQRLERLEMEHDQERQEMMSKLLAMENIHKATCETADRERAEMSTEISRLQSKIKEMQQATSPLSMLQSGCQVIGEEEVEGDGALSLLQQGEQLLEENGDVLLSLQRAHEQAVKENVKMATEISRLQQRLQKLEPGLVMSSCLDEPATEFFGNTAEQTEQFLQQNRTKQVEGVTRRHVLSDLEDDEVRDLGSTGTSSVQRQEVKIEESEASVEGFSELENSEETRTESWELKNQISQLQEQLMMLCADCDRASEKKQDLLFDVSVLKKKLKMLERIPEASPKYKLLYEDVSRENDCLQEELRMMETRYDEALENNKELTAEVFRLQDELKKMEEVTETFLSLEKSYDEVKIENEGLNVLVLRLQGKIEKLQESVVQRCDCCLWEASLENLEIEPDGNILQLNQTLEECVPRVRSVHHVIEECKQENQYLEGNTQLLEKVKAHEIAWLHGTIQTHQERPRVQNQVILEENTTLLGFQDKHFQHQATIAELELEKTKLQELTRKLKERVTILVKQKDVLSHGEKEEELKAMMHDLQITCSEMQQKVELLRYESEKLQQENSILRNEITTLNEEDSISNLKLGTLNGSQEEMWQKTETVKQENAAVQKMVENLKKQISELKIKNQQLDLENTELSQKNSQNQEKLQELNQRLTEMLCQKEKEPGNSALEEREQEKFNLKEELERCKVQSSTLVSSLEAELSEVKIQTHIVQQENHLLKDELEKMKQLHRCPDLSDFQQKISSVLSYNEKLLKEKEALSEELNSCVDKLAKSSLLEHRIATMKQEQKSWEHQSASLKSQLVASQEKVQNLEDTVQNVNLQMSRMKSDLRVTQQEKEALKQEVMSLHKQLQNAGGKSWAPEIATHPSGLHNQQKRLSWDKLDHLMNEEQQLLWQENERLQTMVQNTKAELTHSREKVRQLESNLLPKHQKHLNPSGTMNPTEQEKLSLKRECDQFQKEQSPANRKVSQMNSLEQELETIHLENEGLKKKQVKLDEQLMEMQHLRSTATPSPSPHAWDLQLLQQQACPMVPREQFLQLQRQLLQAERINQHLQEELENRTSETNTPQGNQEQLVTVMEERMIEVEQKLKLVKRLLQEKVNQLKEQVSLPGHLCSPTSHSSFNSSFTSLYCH
UniProt Q9BVT8: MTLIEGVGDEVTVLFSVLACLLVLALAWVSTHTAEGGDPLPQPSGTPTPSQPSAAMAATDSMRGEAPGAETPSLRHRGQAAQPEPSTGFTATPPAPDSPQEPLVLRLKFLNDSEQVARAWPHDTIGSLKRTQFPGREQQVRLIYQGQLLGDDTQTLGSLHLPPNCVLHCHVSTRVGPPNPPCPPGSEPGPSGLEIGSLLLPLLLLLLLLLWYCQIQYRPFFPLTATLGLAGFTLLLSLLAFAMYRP
UniProt P57075: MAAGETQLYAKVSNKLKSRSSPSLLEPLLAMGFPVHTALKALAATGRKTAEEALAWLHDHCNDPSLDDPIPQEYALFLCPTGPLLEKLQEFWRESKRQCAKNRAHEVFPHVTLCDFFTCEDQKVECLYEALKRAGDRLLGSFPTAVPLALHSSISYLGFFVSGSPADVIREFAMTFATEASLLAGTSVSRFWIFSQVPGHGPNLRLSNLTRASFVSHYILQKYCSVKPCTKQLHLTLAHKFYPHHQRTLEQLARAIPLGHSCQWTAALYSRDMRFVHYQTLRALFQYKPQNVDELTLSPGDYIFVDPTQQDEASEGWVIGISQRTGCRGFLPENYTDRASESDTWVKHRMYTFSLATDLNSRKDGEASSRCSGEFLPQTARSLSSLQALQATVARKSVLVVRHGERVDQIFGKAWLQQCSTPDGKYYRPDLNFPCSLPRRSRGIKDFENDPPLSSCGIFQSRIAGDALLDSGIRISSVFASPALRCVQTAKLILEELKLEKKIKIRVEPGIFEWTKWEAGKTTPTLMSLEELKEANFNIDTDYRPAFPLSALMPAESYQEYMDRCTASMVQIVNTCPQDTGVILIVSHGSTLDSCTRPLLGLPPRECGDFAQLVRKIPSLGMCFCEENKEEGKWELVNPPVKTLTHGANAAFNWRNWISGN
UniProt Q8TCN5: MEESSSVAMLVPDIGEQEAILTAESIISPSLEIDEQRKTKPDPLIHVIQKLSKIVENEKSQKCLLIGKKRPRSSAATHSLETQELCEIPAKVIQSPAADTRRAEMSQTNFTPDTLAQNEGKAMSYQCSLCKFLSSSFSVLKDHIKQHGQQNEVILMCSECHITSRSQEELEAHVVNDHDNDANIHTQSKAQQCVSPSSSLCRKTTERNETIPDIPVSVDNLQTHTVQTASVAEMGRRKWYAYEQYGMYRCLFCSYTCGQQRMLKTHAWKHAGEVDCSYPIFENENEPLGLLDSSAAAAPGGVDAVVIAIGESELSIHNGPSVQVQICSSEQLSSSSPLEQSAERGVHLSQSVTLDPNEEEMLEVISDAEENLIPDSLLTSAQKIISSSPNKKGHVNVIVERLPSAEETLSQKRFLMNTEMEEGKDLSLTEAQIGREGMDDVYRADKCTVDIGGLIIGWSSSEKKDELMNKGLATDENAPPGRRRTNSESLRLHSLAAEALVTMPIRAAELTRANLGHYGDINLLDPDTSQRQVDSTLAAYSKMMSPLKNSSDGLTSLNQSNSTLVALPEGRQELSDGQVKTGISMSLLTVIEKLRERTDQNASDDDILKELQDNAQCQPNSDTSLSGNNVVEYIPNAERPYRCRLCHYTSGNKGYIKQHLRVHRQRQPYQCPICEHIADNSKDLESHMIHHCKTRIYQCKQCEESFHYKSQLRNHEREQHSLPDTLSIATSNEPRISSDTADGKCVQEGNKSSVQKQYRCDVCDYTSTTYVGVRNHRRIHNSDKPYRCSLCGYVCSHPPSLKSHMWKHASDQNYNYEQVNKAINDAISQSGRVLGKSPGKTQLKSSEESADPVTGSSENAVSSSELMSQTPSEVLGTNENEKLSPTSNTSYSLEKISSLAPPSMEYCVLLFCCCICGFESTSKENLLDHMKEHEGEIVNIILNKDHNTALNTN
UniProt Q5XKP0: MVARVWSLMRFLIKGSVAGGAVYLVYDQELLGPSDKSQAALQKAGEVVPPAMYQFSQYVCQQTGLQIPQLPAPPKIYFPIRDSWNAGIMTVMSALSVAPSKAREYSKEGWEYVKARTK
UniProt O95870: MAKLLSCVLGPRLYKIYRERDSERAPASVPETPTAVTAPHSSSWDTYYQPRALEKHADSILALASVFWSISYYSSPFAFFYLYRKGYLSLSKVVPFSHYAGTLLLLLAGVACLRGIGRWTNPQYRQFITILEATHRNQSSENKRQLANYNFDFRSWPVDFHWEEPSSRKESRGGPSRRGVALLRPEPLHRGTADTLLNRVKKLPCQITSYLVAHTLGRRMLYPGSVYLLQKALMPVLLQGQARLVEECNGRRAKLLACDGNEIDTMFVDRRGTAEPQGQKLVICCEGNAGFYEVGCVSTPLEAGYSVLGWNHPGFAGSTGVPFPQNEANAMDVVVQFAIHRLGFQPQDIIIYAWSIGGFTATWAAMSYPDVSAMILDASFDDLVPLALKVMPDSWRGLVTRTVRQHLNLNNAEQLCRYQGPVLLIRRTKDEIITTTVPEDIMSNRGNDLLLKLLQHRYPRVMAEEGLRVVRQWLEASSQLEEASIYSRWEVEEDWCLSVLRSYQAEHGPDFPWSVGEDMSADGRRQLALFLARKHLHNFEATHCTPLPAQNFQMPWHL

Compound in this experiment: Nc1ncnc2c1ncn2[C@@H]1O[C@H](COP(=O)(O)OP(=O)(O)OP(=O)(O)O)[C@@H](O)[C@H]1O [adenosine triphosphate]
The experiment in a line: NP40-soluble protein abundance relative to vehicle (solubility fold change) (ratio); higher = more soluble protein in presence of ATP. In outline: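 Across three independent experiments, values are fold changes against the detergent-processed vehicle for each replicate, based on vsn-normalised intensities. The samples were Jurkat crude lysate treated with eight concentrations (0.1 to 10 mM) for 10 min at room temperature and then 3 min at 37 °C. Lysate was solubilised with 0.8% NP40 and benzonase, ultracentrifuged, and the supernatant analysed by TMT-labelled LC-MS/MS.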

± gives the standard deviation of the averaged measurements. Only a part is listed here, and it is no random draw. Most entries show no effect beyond the scatter of the controls.

For “C9JLJ1 and related entries (UniProt Q9BZK7)”, the NP40-soluble protein abundance reads like this: (concentration: 0.1mM) 0.979 ± 0.062; (concentration: 0.5mM) 1.03 ± 0.037.
For the target “C9J2V2 and related entries (UniProt Q9Y6K9)”, the NP40-soluble protein abundance is 0.996 ± 0.041 (concentration: 0.1mM) and 0.945 ± 0.048 (concentration: 0.5mM).
On to UniProt A2RU67, for which the NP40-soluble protein abundance was 0.992 ± 0.025 (concentration: 0.1mM) and 0.946 ± 0.054 (concentration: 0.5mM).
In the case of “B5MDF5 and related entries (UniProt P62826)”, the NP40-soluble protein abundance is 1.04 ± 0.061 (concentration: 0.1mM) and 1.03 ± 0.032 (concentration: 0.5mM).
The matching figures for “C9IYN3 and related entries (UniProt Q8WVV9+D6W592+C9IYN3)”: 1.04 ± 0.073 and 1.06 ± 0.07.
The matching figures for “B7ZM99 and related entries (UniProt Q6UB35)”: 1.03 ± 0.059 and 1.05 ± 0.043.
Regarding FAM171A2 (UniProt A8MVW0), the NP40-soluble protein abundance is, setting by setting: (concentration: 0.1mM) 0.947 ± 0.1; (concentration: 0.5mM) 0.901 ± 0.059.
For the target “B7WPL9 and related entries (UniProt Q6PFW1)”, the NP40-soluble protein abundance reads like this: (concentration: 0.1mM) 0.932 ± 0.061; (concentration: 0.5mM) 0.99 ± 0.021.
With “B4E0Y9 and related entries (UniProt Q9P289)”, the NP40-soluble protein abundance (concentration: 0.1mM) was determined as 0.992 ± 0.029 and the NP40-soluble protein abundance (concentration: 0.5mM) amounted to 0.995 ± 0.017.
As for “B4DJL6 and related entries (UniProt Q96SY0)”, the NP40-soluble protein abundance (concentration: 0.1mM) was 0.983 ± 0.031 and the NP40-soluble protein abundance (concentration: 0.5mM) was determined as 1.03 ± 0.018.
As to “B4DR80 and related entries (UniProt Q9Y6E0)”, the NP40-soluble protein abundance (concentration: 0.1mM) stood at 1.04 ± 0.068 and the NP40-soluble protein abundance (concentration: 0.5mM) is 1.01 ± 0.039.
Take “A0A0G2JK44|P25440 and related entries (UniProt P25440)”: the NP40-soluble protein abundance (concentration: 0.1mM) came to 0.971 ± 0.045 and the NP40-soluble protein abundance (concentration: 0.5mM) turned out to be 0.954 ± 0.064.
In the same order, the values of “B8ZZU6 and related entries (UniProt P15336)” are 0.924 ± 0.057 and 0.905 ± 0.011.
Turning to “C9J066 and related entries (UniProt Q8N4C6)”, the NP40-soluble protein abundance by setting is: (concentration: 0.1mM) 1.04 ± 0.059; (concentration: 0.5mM) 1.05 ± 0.051.
For “A6NMQ1 and related entries (UniProt P09884)”, the NP40-soluble protein abundance amounted to 1.04 ± 0.03 (concentration: 0.1mM) and 1.02 ± 0.038 (concentration: 0.5mM).
In the case of “B5MC15 and related entries (UniProt Q13191)”, the NP40-soluble protein abundance is, setting by setting: (concentration: 0.1mM) 0.994 ± 0.1; (concentration: 0.5mM) 1.08 ± 0.068.
As to “C9JKL2 and related entries (UniProt O95772)”, the NP40-soluble protein abundance came to 0.972 ± 0.019 (concentration: 0.1mM) and 0.92 ± 0.042 (concentration: 0.5mM).
Take “A6NHB5 and related entries (UniProt Q14202)”: the NP40-soluble protein abundance was determined as 1 ± 0.06 (concentration: 0.1mM) and 1.03 ± 0.076 (concentration: 0.5mM).
Regarding “C9JCW7 and related entries (UniProt Q9BVT8)”, the NP40-soluble protein abundance came out at 0.979 ± 0.074 (concentration: 0.1mM) and 0.964 ± 0.06 (concentration: 0.5mM).
For the target HMX3 (UniProt A6NHT5), the NP40-soluble protein abundance (concentration: 0.1mM) was 0.878 ± 0.12 and the NP40-soluble protein abundance (concentration: 0.5mM) came to 0.765 ± 0.056.
On to “A4D1U4 and related entries (UniProt C9J7X6+A4D1U4)”, for which the NP40-soluble protein abundance (concentration: 0.1mM) worked out at 1.16 ± 0.068 and the NP40-soluble protein abundance (concentration: 0.5mM) was 1.09 ± 0.024.
The matching figures for “B4DDG0 and related entries (UniProt P41732+B4E171+B4DDG0)”: 0.975 ± 0.059 and 0.882 ± 0.063.
For the target “D6REL5 and related entries (UniProt Q6UWZ7)”, the NP40-soluble protein abundance runs as follows: (concentration: 0.1mM) 1.03 ± 0.052; (concentration: 0.5mM) 1.01 ± 0.13.
As to “A2IDC6 and related entries (UniProt Q13084)”, the NP40-soluble protein abundance by setting is: (concentration: 0.1mM) 0.914 ± 0.15; (concentration: 0.5mM) 0.927 ± 0.14.
For “B7WPE2 and related entries (UniProt Q32P44)”, the NP40-soluble protein abundance runs as follows: (concentration: 0.1mM) 1.033 ± 0.0067; (concentration: 0.5mM) 1.13 ± 0.036.
As to “A8MUH2 and related entries (UniProt P18859)”, the NP40-soluble protein abundance reads like this: (concentration: 0.1mM) 0.984 ± 0.17; (concentration: 0.5mM) 0.884 ± 0.063.
As for B7Z1T1 (UniProt O00258), the NP40-soluble protein abundance reads like this: (concentration: 0.1mM) 1.11 ± 0.076; (concentration: 0.5mM) 1.05 ± 0.039.
On to “A0A0U1RRC9|P57075 and related entries (UniProt P57075)”, for which the NP40-soluble protein abundance came to 0.971 ± 0.046 (concentration: 0.1mM) and 0.933 ± 0.04 (concentration: 0.5mM).
In the same order, the values of “D3DSM0 and related entries (UniProt P05107)” are 1.02 ± 0.049 and 1.01 ± 0.047.
Turning to “C9JA28 and related entries (UniProt Q9UNL2)”, the NP40-soluble protein abundance was 1.04 ± 0.032 (concentration: 0.1mM) and 1.01 ± 0.076 (concentration: 0.5mM).
The matching figures for “B1AJU2 and related entries (UniProt Q9Y228)”: 0.886 ± 0.13 and 0.857 ± 0.15.
On to “A9UF01 and related entries (UniProt P11274)”, for which the NP40-soluble protein abundance is 1.03 ± 0.045 (concentration: 0.1mM) and 0.999 ± 0.053 (concentration: 0.5mM).
For the target “A8MUS3 and related entries (UniProt P62750)”, the NP40-soluble protein abundance runs as follows: (concentration: 0.1mM) 0.904 ± 0.1; (concentration: 0.5mM) 0.887 ± 0.059.
As to “B9EGE7 and related entries (UniProt Q8TCN5)”, the NP40-soluble protein abundance (concentration: 0.1mM) is 0.919 ± 0.18 and the NP40-soluble protein abundance (concentration: 0.5mM) came to 0.906 ± 0.092.
For the target “A2A2Q9 and related entries (UniProt Q9Y312)”, the NP40-soluble protein abundance stood at 0.957 ± 0.058 (concentration: 0.1mM) and 0.961 ± 0.057 (concentration: 0.5mM).
Regarding PGP (UniProt A6NDG6), the NP40-soluble protein abundance reads like this: (concentration: 0.1mM) 0.992 ± 0.056; (concentration: 0.5mM) 1.01 ± 0.035.
For “C9JIF9 and related entries (UniProt P13798)”, the NP40-soluble protein abundance reads like this: (concentration: 0.1mM) 1.02 ± 0.068; (concentration: 0.5mM) 1.01 ± 0.042.
Regarding B7Z4W5 (UniProt Q16773), the NP40-soluble protein abundance (concentration: 0.1mM) is 1.05 ± 0.17 and the NP40-soluble protein abundance (concentration: 0.5mM) amounted to 1.01 ± 0.037.
For the target “C4B7M2 and related entries (UniProt Q96JI7)”, the NP40-soluble protein abundance (concentration: 0.1mM) turned out to be 0.944 ± 0.2 and the NP40-soluble protein abundance (concentration: 0.5mM) worked out at 1.06 ± 0.11.
As to “B7ZL14 and related entries (UniProt Q96RU3)”, the NP40-soluble protein abundance runs as follows: (concentration: 0.1mM) 0.993 ± 0.011; (concentration: 0.5mM) 0.991 ± 0.057.
On to “A6NG10 and related entries (UniProt Q969T9)”, for which the NP40-soluble protein abundance (concentration: 0.1mM) turned out to be 0.937 ± 0.025 and the NP40-soluble protein abundance (concentration: 0.5mM) turned out to be 1 ± 0.043.
As for “B7Z2R7 and related entries (UniProt Q5T8D3)”, the NP40-soluble protein abundance (concentration: 0.1mM) amounted to 0.977 ± 0.033 and the NP40-soluble protein abundance (concentration: 0.5mM) came to 0.9806 ± 0.0056.
Turning to “A0A0J9YWD5|A0A0J9YYB5|B7ZM65 and related entries (UniProt Q9P1Y6)”, the NP40-soluble protein abundance (concentration: 0.1mM) amounted to 0.944 ± 0.073 and the NP40-soluble protein abundance (concentration: 0.5mM) is 0.964 ± 0.073.
In the same order, the values of “A0A0U1RR27|Q7Z401 and related entries (UniProt Q7Z401)” are 0.982 ± 0.08 and 0.986 ± 0.075.
With YDJC (UniProt A8MPS7), the NP40-soluble protein abundance reads like this: (concentration: 0.1mM) 1.06 ± 0.022; (concentration: 0.5mM) 1 ± 0.054.
As to UNC119B (UniProt A6NIH7), the NP40-soluble protein abundance is, setting by setting: (concentration: 0.1mM) 1.06 ± 0.1; (concentration: 0.5mM) 1.07 ± 0.093.
Turning to “D3YTK1 and related entries (UniProt Q9C0K0)”, the NP40-soluble protein abundance runs as follows: (concentration: 0.1mM) 1.03 ± 0.073; (concentration: 0.5mM) 1.07 ± 0.082.
Consider “D6RER5 and related entries (UniProt Q9NVA2)”, for which the NP40-soluble protein abundance (concentration: 0.1mM) is 1.03 ± 0.037 and the NP40-soluble protein abundance (concentration: 0.5mM) turned out to be 1.08 ± 0.078.
For the target A0A140TA86|Q5XKP0 (UniProt Q5XKP0), the NP40-soluble protein abundance (concentration: 0.1mM) stood at 0.88 ± 0.07 and the NP40-soluble protein abundance (concentration: 0.5mM) was determined as 0.863 ± 0.084.
The matching figures for “C9JNW5 and related entries (UniProt P83731)”: 0.885 ± 0.042 and 0.903 ± 0.025.
Regarding “C9JRZ6 and related entries (UniProt Q9NX63)”, the NP40-soluble protein abundance by setting is: (concentration: 0.1mM) 0.98 ± 0.1; (concentration: 0.5mM) 0.983 ± 0.035.
In the same order, the values of A0A0G2JJD3|O95870 (UniProt O95870) are 1.05 ± 0.061 and 1.02 ± 0.058.
